Results: US9353132B2, “Boron-based 4-hydroxytamoxifen and endoxifen prodrugs as treatment for breast cancer” (XAVIER UNIVERSITY OF LOUISIANA, priority 2012, dated 2016)

System: T47D cells
Assay: Cell survival/growth inhibition assay in ER+ T47D breast cancer cells
Format: cell-based
Details: Homo sapiens, dose-response
Procedure: The T47D cell line is also an ER positive control cell line.
To determine if the novel boron-based prodrugs have equal or better efficacy than tamoxifen, in vitro breast cancer cell proliferation assays were performed using two estrogen receptor positive cell lines, MCF-7 and T47D.
To test if the prodrugs can inhibit growth in another breast cancer cell line that also expresses the estrogen receptor, T47D cells were used. Survival assays using T47D cells confirmed the efficacies of the prodrugs (FIG. 4).

CC/C(=C(\c1ccccc1)c1ccc(OCCN(C)C)cc1)c1ccccc1 [Tamoxifen]
IC50: 1130 nM
